From PMC5550851
Read-outs that look alike come from different tables or passages of the source. These are yes or no findings as the source states them, for the method shown. Binding seen in cells or lysates may run through a third protein. Some binding calls cover weakened binding; strength is not graded here. For some of these results: Sequences can lack the tags named with a protein.

Amino acid sequences for entries named in this document (tags omitted). Residues count along the entry.
UniProt Q63604, residues 32-821: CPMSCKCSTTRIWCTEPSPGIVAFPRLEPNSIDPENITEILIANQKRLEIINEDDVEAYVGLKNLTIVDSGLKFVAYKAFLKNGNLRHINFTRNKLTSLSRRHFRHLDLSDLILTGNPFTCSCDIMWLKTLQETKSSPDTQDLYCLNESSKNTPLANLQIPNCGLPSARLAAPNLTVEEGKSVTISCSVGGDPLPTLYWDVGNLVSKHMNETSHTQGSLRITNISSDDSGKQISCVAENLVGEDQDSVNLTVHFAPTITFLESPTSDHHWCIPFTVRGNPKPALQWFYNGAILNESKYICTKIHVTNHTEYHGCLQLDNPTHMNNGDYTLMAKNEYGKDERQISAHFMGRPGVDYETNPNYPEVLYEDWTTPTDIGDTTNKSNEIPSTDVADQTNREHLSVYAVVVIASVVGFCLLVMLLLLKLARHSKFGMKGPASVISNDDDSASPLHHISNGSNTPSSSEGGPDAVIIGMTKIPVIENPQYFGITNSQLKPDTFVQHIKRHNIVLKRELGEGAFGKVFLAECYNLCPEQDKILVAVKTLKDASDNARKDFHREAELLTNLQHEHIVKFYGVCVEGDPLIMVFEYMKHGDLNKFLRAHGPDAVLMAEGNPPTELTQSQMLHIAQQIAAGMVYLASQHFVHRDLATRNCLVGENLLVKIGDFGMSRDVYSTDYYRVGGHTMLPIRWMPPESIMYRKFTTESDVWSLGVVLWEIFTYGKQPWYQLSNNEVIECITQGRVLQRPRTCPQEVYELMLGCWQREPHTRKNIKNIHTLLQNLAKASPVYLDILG
UniProt Q07866: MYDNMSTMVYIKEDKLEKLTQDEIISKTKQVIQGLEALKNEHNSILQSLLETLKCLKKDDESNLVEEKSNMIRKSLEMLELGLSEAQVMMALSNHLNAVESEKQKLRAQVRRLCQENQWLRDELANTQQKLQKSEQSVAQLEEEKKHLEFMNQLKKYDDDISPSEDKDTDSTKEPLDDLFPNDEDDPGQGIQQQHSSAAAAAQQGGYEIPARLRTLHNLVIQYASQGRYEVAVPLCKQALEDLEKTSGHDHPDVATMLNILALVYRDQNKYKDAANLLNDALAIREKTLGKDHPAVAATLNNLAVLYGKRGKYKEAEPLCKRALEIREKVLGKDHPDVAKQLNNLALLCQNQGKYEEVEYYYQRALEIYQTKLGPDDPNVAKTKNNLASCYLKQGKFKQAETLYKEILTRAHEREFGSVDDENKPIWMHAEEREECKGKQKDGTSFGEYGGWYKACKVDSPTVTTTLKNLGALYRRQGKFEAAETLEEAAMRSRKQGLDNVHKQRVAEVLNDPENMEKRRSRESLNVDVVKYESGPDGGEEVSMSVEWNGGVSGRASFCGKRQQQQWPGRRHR

B1: CC1-EGFP (coiled-coil domain 1 of JIP3 fused with EGFP), in HEK293 cells (domain or fragment)
chain: QLSGEQEVLKGELEAAKQAKVKLENRIKELEEELKRVKSEAVTARREPREEVEDVSSYLCTELDKIPMAQ
B2: Myc-mJIP3 (protein, UniProt Q9ESN9 1-1337)
chain: MMEIQMDEGGGVVVYQDDYCSGSVMSERVSGLAGSIYREFERLIHCYDEEVVKELMPLVVNVLENLDSVLSENQEHEVELELLREDNEQLLTQYEREKALRKQAEEKFIEFEDALEQEKKELQIQVEHYEFQTRQLELKAKNYADQISRLEERESEMKKEYNALHQRHTEMIQTYVEHIERSKMQQVGGSGQTESSLPGRSRKERPTSLNVFPLADGMVRAQMGGKLVPAGDHWHLSDLGQLQSSSSYQCPNDEMSESGQSSAAATPSTTGTKSNTPTSSVPSAAVTPLNESLQPLGDYVSVTKNNKQAREKRNSRNMEVQVTQEMRNVSIGMGSSDEWSDVQDIIDSTPELDVCPETRLERTGSSPTQGIVNKAFGINTDSLYHELSTAGSEVIGDVDEGADLLGEFSVRDDFFGMGKEVGNLLLENSQLLETKNALNVVKNDLIAKVDQLSGEQEVLKGELEAAKQAKVKLENRIKELEEELKRVKSEAVTARREPREEVEDVSSYLCTELDKIPMAQRRRFTRVEMARVLMERNQYKERLMELQEAVRWTEMIRASREHPSVQEKKKSTIWQFFSRLFSSSSSPPPAKRSYPSVNIHYKSPTAAGFSQRRSHALCQISAGSRPLEFFPDDDCTSSARREQKREQYRQVREHVRNDDGRLQACGWSLPAKYKQLSPNGGQEDTRMKNVPVPVYCRPLVEKDPSTKLWCAAGVNLSGWKPHEEDSSNGPKPVPGRDPLTCDREGEGEPKSTHPSPEKKKAKETPEADATSSRVWILTSTLTTSKVVIIDANQPGTIVDQFTVCNAHVLCISSIPAASDSDYPPGEMFLDSDVNPEDSGADGVLAGITLVGCATRCNVPRSNCSSRGDTPVLDKGQGDVATTANGKVNPSQSTEEATEATEVPDPGPSESEATTVRPGPLTEHVFTDPAPTPSSSTQPASENGSESNGTIVQPQVEPSGELSTTTSSAAPTMWLGAQNGWLYVHSAVANWKKCLHSIKLKDSVLSLVHVKGRVLVALADGTLAIFHRGEDGQWDLSNYHLMDLGHPHHSIRCMAVVNDRVWCGYKNKVHVIQPKTMQIEKSFDAHPRRESQVRQLAWIGDGVWVSIRLDSTLRLYHAHTHQHLQDVDIEPYVSKMLGTGKLGFSFVRITALLIAGNRLWVGTGNGVVISIPLTETVVLHRGQLLGLRANKTSPTSGEGTRPGGIIHVYGDDSSDKAASSFIPYCSMAQAQLCFHGHRDAVKFFVSVPGNVLATLNGSVLDSPSEGPGPAAPAADAEGQKLKNALVLSGGEGYIDFRIGDGEDDETEECAGDVNQTKPSLSKAERSHIIVWQVSYTPE
B3: CC1-EGFP expressed from virus in rat neurons (domain or fragment)
chain: B1 chain

How the values were obtained:
[1] = target: Flag-rTrkB-FL (rat) (UniProt Q63604); assay: co-IP; HEK293 cells co-transfected; lysed 48 h later in TNE buffer (10 mM Tris, 150 mM NaCl, 1 mM EDTA, 1% NP-40, 10% glycerol); precipitated with anti-FLAG M2-Sepharose overnight at 4 °C; immunoblot; with or without rising amounts of CC1-EGFP
[2] = target: Flag-rTrkB-FL (rat) (UniProt Q63604); assay: as above; remark: listed apart in the source
[3] = target: endogenous TrkB (rat (endogenous in Wistar rat hippocampal neurons and BLA tissue)) (UniProt Q63604); assay: co-IP; endogenous proteins; DIV6 rat hippocampal neurons infected with EGFP or CC1-EGFP lentivirus, lysed in TNE buffer 48 h later; mouse anti-JIP3 antibody and protein G-Sepharose; immunoblot for TrkB, JIP3 and GFP

Row | Molecule | binding [2] | further results
1 | Myc-hKLC1 (from UniProt Q07866 1-573) | – | binding [1]: binds
2 | B1 | binds | –
3 | B2 | binds | –
4 | B3 | – | binding [3]: binds
